Data published in the supplement of paper PMC12819154, “High-throughput peptide-centric local stability assay extends protein–ligand identification to membrane proteins, tissues and bacteria” (Nature Structural & Molecular Biology, 2025).
This is one part of the list. Small differences around the control level are noise.

Amino acid sequences for entries named in this document (tags omitted). A change or cut given only in a name is not applied to a line headed by its entry.
UniProt Q9DB98: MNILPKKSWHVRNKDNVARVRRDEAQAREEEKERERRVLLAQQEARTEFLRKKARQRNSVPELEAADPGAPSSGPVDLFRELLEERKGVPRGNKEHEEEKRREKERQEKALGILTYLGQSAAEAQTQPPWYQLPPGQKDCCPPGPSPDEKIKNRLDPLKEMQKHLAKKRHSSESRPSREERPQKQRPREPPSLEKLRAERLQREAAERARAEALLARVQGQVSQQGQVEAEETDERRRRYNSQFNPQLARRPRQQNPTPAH
UniProt Q9EQ06: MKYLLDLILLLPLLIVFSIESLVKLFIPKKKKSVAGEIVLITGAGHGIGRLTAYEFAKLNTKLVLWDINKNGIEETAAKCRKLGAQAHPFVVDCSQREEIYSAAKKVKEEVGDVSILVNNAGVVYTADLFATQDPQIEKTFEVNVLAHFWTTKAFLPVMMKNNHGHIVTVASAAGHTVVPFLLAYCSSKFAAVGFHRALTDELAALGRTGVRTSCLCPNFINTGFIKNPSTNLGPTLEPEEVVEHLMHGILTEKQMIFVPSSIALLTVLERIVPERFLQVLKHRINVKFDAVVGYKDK
UniProt Q9ERH6: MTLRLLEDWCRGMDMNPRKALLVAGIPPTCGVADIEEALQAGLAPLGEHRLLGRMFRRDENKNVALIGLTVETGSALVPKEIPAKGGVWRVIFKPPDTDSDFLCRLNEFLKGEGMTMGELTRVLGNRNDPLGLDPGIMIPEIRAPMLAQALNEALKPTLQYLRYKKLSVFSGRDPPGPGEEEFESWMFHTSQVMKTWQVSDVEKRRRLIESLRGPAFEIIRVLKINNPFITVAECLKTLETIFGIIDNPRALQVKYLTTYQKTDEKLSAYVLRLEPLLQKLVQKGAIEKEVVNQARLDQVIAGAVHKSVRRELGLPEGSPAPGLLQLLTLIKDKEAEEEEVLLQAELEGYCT
UniProt Q9EQQ9: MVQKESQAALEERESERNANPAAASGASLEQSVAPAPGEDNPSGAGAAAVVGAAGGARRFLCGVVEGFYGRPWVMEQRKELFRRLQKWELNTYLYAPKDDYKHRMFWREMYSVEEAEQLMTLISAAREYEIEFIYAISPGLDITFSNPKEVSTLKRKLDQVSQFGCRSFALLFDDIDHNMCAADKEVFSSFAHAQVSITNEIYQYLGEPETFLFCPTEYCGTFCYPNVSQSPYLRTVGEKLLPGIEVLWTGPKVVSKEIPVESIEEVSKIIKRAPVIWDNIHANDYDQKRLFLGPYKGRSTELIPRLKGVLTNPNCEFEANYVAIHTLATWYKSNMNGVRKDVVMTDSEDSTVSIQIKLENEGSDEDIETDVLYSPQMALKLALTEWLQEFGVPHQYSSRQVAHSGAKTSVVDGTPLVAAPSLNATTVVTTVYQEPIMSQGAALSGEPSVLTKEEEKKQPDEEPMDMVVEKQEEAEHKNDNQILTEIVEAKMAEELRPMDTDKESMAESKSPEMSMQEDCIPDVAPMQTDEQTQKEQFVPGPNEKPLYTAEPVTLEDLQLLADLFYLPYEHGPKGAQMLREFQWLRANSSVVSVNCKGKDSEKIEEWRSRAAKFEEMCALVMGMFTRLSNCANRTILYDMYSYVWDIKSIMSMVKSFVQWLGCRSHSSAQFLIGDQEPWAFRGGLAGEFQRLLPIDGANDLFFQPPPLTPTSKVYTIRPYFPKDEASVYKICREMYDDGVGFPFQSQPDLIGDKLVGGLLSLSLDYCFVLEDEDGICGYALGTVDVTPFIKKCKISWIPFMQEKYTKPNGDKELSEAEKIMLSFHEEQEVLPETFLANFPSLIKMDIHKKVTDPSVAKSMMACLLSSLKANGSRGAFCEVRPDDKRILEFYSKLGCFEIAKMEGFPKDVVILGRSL
UniProt Q9EP52: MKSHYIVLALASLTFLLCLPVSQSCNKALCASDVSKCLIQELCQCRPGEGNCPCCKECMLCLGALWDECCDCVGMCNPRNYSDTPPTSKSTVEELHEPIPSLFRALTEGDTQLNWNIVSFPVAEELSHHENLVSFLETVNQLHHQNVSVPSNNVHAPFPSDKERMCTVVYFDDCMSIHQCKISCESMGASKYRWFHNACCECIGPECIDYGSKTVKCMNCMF
UniProt Q9DCI3: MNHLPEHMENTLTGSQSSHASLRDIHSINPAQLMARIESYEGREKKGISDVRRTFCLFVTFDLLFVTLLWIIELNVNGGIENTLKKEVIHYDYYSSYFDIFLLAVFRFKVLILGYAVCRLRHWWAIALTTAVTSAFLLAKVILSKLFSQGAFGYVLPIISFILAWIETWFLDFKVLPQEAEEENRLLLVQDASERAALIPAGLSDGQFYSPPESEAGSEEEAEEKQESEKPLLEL
UniProt Q9DCT1: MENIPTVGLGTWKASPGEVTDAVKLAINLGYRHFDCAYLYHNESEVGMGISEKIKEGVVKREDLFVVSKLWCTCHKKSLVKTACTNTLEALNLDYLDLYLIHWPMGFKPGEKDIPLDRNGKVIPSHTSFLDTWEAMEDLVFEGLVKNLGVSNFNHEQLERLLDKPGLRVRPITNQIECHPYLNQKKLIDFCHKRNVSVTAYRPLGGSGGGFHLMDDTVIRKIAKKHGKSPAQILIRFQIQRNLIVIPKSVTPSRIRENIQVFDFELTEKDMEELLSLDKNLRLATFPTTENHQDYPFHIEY
UniProt Q9DC37: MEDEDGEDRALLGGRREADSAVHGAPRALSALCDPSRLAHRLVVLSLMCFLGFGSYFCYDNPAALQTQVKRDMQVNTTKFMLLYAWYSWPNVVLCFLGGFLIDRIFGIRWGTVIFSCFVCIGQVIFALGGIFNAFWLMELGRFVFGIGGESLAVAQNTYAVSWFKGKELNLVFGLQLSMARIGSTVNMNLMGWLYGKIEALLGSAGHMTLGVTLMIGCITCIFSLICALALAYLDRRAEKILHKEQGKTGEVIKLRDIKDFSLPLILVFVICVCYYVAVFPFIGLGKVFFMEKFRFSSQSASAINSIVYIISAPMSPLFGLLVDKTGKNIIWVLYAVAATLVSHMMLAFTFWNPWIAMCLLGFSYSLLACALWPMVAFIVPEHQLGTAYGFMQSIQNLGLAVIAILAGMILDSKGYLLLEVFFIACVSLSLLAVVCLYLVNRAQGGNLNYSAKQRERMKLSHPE
UniProt Q9DBW0: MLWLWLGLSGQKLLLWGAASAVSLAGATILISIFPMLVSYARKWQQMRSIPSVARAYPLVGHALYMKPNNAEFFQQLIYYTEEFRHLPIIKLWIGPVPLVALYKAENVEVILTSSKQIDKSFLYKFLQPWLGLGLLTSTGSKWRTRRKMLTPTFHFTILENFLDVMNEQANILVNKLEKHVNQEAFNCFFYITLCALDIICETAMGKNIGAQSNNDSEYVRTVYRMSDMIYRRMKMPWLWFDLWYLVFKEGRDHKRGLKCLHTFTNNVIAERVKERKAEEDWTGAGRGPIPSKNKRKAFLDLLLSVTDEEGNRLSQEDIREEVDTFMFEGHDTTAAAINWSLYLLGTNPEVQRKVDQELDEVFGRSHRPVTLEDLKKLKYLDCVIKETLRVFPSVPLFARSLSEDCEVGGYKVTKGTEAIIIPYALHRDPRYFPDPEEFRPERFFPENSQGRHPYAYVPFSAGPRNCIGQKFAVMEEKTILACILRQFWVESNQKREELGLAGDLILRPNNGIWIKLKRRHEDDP
UniProt Q9DB40: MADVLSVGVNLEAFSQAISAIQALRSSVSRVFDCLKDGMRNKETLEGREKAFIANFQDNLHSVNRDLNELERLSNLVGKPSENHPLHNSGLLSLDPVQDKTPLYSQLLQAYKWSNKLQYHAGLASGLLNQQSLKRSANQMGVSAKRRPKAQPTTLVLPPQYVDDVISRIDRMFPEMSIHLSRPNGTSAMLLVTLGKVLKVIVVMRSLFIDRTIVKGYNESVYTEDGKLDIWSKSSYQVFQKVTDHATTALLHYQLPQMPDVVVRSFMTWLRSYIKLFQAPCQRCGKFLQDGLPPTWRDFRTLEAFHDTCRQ
UniProt Q9DBR4: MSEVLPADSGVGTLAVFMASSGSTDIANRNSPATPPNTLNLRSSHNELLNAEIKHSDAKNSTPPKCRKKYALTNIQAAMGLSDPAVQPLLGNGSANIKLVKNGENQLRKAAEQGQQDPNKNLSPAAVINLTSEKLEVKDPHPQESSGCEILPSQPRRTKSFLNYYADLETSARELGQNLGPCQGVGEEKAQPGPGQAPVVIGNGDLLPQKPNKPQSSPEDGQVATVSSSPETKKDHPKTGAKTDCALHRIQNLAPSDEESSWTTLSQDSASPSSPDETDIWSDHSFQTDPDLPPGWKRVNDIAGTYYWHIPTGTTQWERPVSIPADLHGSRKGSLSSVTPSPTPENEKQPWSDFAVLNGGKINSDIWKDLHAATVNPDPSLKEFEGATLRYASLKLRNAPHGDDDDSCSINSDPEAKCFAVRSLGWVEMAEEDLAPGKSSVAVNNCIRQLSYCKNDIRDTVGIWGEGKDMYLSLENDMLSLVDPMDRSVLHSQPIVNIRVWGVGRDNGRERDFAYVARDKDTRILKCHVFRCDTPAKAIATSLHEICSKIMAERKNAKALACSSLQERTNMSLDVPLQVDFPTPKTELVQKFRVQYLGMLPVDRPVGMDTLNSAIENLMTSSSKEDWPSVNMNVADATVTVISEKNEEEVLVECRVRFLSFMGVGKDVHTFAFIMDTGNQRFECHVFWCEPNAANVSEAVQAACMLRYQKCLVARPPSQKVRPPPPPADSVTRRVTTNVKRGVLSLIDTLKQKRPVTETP
UniProt Q9EQN3: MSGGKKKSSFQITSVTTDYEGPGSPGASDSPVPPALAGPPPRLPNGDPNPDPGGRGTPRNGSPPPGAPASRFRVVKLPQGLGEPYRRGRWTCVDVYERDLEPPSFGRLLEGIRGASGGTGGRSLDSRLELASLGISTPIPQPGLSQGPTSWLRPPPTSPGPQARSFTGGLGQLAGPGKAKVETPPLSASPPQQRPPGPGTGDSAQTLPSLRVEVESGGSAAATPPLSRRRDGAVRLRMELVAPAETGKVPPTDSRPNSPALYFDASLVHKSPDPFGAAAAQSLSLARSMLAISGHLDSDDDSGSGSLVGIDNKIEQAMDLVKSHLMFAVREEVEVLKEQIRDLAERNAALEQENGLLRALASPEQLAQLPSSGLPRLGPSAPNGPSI
UniProt Q9EPC1: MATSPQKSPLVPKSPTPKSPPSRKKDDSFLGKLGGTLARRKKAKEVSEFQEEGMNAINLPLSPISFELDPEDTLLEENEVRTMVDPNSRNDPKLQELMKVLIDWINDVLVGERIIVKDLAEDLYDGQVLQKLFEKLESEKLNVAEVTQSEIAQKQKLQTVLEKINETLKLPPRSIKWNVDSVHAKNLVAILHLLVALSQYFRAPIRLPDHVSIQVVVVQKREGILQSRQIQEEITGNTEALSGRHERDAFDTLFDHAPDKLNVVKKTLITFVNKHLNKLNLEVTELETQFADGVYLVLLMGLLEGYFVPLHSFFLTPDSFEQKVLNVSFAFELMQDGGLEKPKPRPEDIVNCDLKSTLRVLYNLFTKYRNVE
UniProt Q9DB43: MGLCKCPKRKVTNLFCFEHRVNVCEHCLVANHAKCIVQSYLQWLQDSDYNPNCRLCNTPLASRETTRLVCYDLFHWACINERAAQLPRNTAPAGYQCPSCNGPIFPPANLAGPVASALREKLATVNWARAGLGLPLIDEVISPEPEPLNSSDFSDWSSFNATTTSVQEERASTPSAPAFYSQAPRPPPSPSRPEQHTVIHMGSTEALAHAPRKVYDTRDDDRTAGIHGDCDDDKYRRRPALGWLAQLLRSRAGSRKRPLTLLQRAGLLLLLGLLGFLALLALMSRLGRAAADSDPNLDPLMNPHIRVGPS
UniProt Q9EPK2: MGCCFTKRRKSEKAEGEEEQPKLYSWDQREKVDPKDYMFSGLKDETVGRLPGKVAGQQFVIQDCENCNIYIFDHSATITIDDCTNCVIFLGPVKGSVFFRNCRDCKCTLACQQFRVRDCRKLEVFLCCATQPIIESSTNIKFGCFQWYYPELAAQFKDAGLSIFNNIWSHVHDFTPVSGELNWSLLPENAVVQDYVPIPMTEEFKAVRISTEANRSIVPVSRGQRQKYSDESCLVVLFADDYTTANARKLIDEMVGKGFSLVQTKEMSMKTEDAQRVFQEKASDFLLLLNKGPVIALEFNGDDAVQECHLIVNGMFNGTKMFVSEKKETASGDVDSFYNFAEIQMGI
UniProt Q9DBJ3: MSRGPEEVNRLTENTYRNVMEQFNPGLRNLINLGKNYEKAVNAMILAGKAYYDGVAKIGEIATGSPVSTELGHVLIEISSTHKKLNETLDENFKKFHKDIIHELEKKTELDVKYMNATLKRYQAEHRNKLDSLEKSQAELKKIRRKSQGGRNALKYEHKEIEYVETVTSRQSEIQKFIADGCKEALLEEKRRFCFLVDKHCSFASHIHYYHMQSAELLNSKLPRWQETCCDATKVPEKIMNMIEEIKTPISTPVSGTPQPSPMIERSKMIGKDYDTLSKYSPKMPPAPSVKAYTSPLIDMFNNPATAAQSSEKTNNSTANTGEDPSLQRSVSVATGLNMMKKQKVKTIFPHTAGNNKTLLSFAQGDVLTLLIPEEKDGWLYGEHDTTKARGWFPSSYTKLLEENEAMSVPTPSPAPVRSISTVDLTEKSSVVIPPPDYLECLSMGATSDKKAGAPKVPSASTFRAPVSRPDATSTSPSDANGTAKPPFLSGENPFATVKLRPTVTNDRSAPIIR

What follows are targets tested with CN[C@@H]1C[C@H]2O[C@@](C)([C@@H]1OC)n1c3ccccc3c3c4c(c5c6ccccc6n2c5c31)C(=O)NC4 [staurosporine] (assay: log2 fold change of tryptic peptide abundance, ligand vs vehicle (limited proteolysis) (log2 ratio); higher = more trypsin-susceptible (destabilized)). Conditions: ligand concentration: 20 uM; sample: mouse liver crude lysate; replicate design: treated separately.
“UniProt Q9DB98 (peptide sequence: RYNSQFNPQLAR, peptide start residue: 239)” was tested, and the log2 fold change was -0.425. Target “UniProt Q9DB77 (peptide sequence: IDKAVAFQNSQTR, peptide start residue: 160)” has a log2 fold change of -0.537. “UniProt Q9DD16 (peptide sequence: DLPGLLVVR, peptide start residue: 171)” gave a log2 fold change of 0.623. For “UniProt Q9DC71 (peptide sequence: QEQLMNK, peptide start residue: 109)”, the log2 fold change was -0.361. For “UniProt Q9EQ06 (peptide sequence: KLGAQAHPFVVDCSQR, peptide start residue: 82)”, the log2 fold change was -0.653. With “UniProt Q9DBH5 (peptide sequence: DNVDDPTGNFR, peptide start residue: 306)” the log2 fold change was 0.346. “UniProt Q9DCG9 (peptide sequence: MKLLTHNLLSSHVR, peptide start residue: 1)” gave a log2 fold change of -0.4. “UniProt Q9EQG9 (peptide sequence: REVEENGIVLDPLKATHAVK, peptide start residue: 432)” gave a log2 fold change of -0.527. “UniProt Q9ERA0 (peptide sequence: LFTNFSGADLLK, peptide start residue: 348)” showed a log2 fold change of 0.29. For “UniProt Q9DAU9 (peptide sequence: TYIDTMEKK, peptide start residue: 910)”, the log2 fold change was 0.561. With “UniProt Q9ERH6 (peptide sequence: YKKLSVFSGR, peptide start residue: 164)” the log2 fold change was 0.285. “UniProt Q9DB90 (peptide sequence: WKEPGSSGPQNLSGPGGR, peptide start residue: 20)” gave a log2 fold change of -0.412. With “UniProt Q9EQQ9 (peptide sequence: KVTDPSVAK, peptide start residue: 850)” the log2 fold change was -0.653. In the case of “UniProt Q9EP52 (peptide sequence: STVEELHEPIPSLFR, peptide start residue: 90)”, the log2 fold change is reported as -0.302. “UniProt Q9DCX2 (peptide sequence: ANVAKPGLVDDFEK, peptide start residue: 59)” was tested, and the log2 fold change was -0.318. In the case of “UniProt Q9DCI3 (peptide sequence: DIHSINPAQLMAR, peptide start residue: 24)”, the log2 fold change is reported as -0.0538. In the case of “UniProt Q9DBF7 (peptide sequence: ELLQMSLEKK, peptide start residue: 165)”, the log2 fold change is reported as 0.494. In the case of “UniProt Q9DD03 (peptide sequence: SGTNSKPSSTGLK, peptide start residue: 178)”, the log2 fold change is reported as -0.466. With “UniProt Q9DCT1 (peptide sequence: REDLFVVSK, peptide start residue: 61)” the log2 fold change was 0.184. Work on “UniProt Q9DCB1 (peptide sequence: TESIEKEGE, peptide start residue: 91)” yielded a log2 fold change of -0.0303. “UniProt Q9DC37 (peptide sequence: EADSAVHGAPR, peptide start residue: 17)” gave a log2 fold change of -0.0361. In the case of “UniProt Q9DBW0 (peptide sequence: KAEEDWTGAGRGPIPSK, peptide start residue: 277)”, the log2 fold change is reported as -0.399. With “UniProt Q9DBN1 (peptide sequence: QLLSKPRPQEGEK, peptide start residue: 224)” the log2 fold change was 0.527. In the case of “UniProt Q9DB40 (peptide sequence: LQYHAGLASGLLNQQSLKR, peptide start residue: 117)”, the log2 fold change is reported as 0.0365. Work on “UniProt Q9DD19 (peptide sequence: LQALSAATAEHAAR, peptide start residue: 198)” yielded a log2 fold change of 0.0805. Target “UniProt Q9DBR4 (peptide sequence: DLHAATVNPDPSLKEFEGATLR, peptide start residue: 369)” has a log2 fold change of 0.235. Target “UniProt Q9DBQ9 (peptide sequence: QHLQSHQMSLNLAR, peptide start residue: 269)” has a log2 fold change of 0.593. With “UniProt Q9EQ28 (peptide sequence: VAVVREDKLEAVK, peptide start residue: 77)” the log2 fold change was -1. For “UniProt Q9EPB8 (peptide sequence: YIINIFR, peptide start residue: 294)”, the log2 fold change was 0.0623. For “UniProt Q9EQN3 (peptide sequence: SFTGGLGQLAGPGK, peptide start residue: 165)”, the log2 fold change was 0.297. “UniProt Q9EQC5 (peptide sequence: APGGFMSNR, peptide start residue: 263)” gave a log2 fold change of 0.207. For “UniProt Q9EPC1 (peptide sequence: WNVDSVHAK, peptide start residue: 177)”, the log2 fold change was 0.807. “UniProt Q9DCH6 (peptide sequence: VGLTGFECR, peptide start residue: 171)” gave a log2 fold change of -0.331. For “UniProt Q9DB43 (peptide sequence: RRPALGWLAQLLR, peptide start residue: 237)”, the log2 fold change was 0.224. “UniProt Q9EPW0 (peptide sequence: YAFNSLQLK, peptide start residue: 913)” was tested, and the log2 fold change was 0.496. “UniProt Q9DBR7 (peptide sequence: LEKDDSTDFKK, peptide start residue: 923)” showed a log2 fold change of -0.179. With “UniProt Q9EPK2 (peptide sequence: LYSWDQR, peptide start residue: 23)” the log2 fold change was -0.134. “UniProt Q9DBJ3 (peptide sequence: NVMEQFNPGLR, peptide start residue: 18)” showed a log2 fold change of -0.207. Target “UniProt Q9ERD6 (peptide sequence: EDLAGPDIGASPQGGRK, peptide start residue: 298)” has a log2 fold change of -0.285. “UniProt Q9DBV3 (peptide sequence: HLHNDFLLGVLQR, peptide start residue: 287)” showed a log2 fold change of 0.385.
